Measured values taken from US20230174620A1.
Results are given in words; binding and its absence hold for the method and conditions named. Some entries that bind do so weakly or less than the wild type.

Sequences of proteins named here, by UniProt entry; tags and fusion partners are left off. A change or cut given only in a name is not applied to a line headed by its entry. Residues count along the entry.
UniProt P22004, residues 382-513: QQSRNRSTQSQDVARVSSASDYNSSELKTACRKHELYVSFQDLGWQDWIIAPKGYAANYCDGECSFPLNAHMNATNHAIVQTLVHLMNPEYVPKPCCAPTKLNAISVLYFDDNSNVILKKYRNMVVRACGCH
UniProt P27037: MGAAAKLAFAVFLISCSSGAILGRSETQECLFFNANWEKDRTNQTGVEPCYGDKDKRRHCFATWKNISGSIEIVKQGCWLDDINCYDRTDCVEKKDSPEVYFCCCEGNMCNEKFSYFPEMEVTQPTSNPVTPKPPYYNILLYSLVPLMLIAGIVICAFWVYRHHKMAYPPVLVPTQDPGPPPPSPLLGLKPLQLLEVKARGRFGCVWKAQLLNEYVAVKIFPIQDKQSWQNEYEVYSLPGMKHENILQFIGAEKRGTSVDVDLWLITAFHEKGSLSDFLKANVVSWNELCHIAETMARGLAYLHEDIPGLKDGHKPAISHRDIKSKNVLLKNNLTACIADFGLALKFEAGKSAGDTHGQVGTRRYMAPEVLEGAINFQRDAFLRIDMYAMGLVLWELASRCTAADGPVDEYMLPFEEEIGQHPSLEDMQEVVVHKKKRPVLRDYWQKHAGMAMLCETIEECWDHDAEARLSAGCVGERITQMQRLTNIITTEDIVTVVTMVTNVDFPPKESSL

What was measured:
BMP10 = target: T1, BMP10 (UniProt O95393); experiment: similar binding assay (SPR, Biacore)
T1 sequence (looked up): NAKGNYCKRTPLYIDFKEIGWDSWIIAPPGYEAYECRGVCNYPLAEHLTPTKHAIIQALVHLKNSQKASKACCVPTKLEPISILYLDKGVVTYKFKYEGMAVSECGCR

BMP6 = BMP6 (UniProt P22004); experiment: similar binding assay (SPR, Biacore)
GDF8 = target: T2, GDF8 (UniProt O14793); experiment: similar binding assay (SPR, Biacore)
T2 sequence (looked up): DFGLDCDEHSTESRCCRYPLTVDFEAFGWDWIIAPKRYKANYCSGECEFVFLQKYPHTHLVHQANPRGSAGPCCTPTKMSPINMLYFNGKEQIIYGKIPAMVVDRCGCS

activin B = target: T3, activin B (UniProt P09529); experiment: similar binding assay (SPR, Biacore)
T3 sequence (looked up): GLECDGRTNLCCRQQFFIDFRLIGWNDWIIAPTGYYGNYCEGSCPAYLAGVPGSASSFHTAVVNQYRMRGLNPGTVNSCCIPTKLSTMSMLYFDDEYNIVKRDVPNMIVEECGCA

GDF11 = target: T4, GDF11 (UniProt O95390); experiment: SPR (Biacore), ligand amine-coupled to CM5 chip, ActRIIA-mFc as analyte
T4 sequence (looked up): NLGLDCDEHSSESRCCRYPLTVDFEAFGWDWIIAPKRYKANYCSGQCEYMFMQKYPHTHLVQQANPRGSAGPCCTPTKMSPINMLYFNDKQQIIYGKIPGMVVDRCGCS

Measured: binding

ActRIIA-mFc (from UniProt P27037 21-135) (Fc fusion)
binds: all assays above
